Results deposited as PubChem BioAssay AID1224829 (NIAID, 2016)

- Screen: 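Secondary check of hits that alter LPS-induced p65 translocation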 (follow-up of hits)
- Cell system: mouse RAW264.7 G9 macrophage reporter cells
- Reagent: single siRNA against mouse genes, 100 nM
- Time to read-out: 2 days of siRNA knock-down, then 40 min of LPS before fixing
- Challenge: LPS (Salmonella minnesota R595) at 10 ng/ml
- Measured: 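High-content images after 40 min LPS exposure; GFP-p65 nucleus to surrounding ring signal ratio, normalised to plate median and non-targeting control wells, expressed as z-score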
- Reading the numbers: p65 translocation z-score: higher = more nuclear NF-kappaB p65 after LPS
- Hit rule: 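An siRNA is called active when the mean z-score of its two replicates is above 2 or below -2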
- Calls: active = changed p65 translocation (either direction); inactive = no clear change
This is one part, drawn at random, of about 3,800 reagents. 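Calls cover raised and lowered translocation; gene median uses one vendor's three siRNAs; qiagen siRNAs acted more weakly than ambion siRNAs.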 The numbers tell different reagents against one gene apart. Further read-outs or replicates are left out here. Reagent sequences are not shown.

{"gene": "Hfe", "reagent no.": 1, "siRNA vendor or control pool": "ambion single siRNA", "p65 translocation z-score, replicate mean": -0.693, "p65 translocation z-score, replicate 1": -0.747, "Call": "inactive"}
{"gene": "Hfe", "reagent no.": 2, "siRNA vendor or control pool": "ambion single siRNA", "p65 translocation z-score, replicate mean": -0.455, "p65 translocation z-score, replicate 1": 0.102, "Call": "inactive"}
{"gene": "Hfe", "reagent no.": 3, "siRNA vendor or control pool": "ambion single siRNA", "p65 translocation z-score, replicate mean": -4.39, "p65 translocation z-score, replicate 1": -4.1, "Call": "active"}
{"gene": "Hfe", "reagent no.": 4, "siRNA vendor or control pool": "qiagen single siRNA", "p65 translocation z-score, replicate mean": 1.17, "p65 translocation z-score, replicate 1": 1.25, "Call": "inactive"}
{"gene": "Hfe", "reagent no.": 5, "siRNA vendor or control pool": "qiagen single siRNA", "p65 translocation z-score, replicate mean": -0.892, "p65 translocation z-score, replicate 1": 0.0199, "Call": "inactive"}
{"gene": "Hfe", "reagent no.": 6, "siRNA vendor or control pool": "qiagen single siRNA", "p65 translocation z-score, replicate mean": 2.16, "p65 translocation z-score, replicate 1": 0.802, "Call": "active"}
{"gene": "Svil", "reagent no.": 1, "siRNA vendor or control pool": "ambion single siRNA", "p65 translocation z-score, replicate mean": 0.278, "p65 translocation z-score, replicate 1": -0.632, "Call": "inactive"}
{"gene": "Svil", "reagent no.": 2, "siRNA vendor or control pool": "ambion single siRNA", "p65 translocation z-score, replicate mean": -0.73, "p65 translocation z-score, replicate 1": -0.587, "Call": "inactive"}
{"gene": "Svil", "reagent no.": 3, "siRNA vendor or control pool": "ambion single siRNA", "p65 translocation z-score, replicate mean": -0.8, "p65 translocation z-score, replicate 1": 2.16, "Call": "inactive"}
{"gene": "Svil", "reagent no.": 4, "siRNA vendor or control pool": "qiagen single siRNA", "p65 translocation z-score, replicate mean": 0.491, "p65 translocation z-score, replicate 1": 1.18, "Call": "inactive"}
{"gene": "Svil", "reagent no.": 5, "siRNA vendor or control pool": "qiagen single siRNA", "p65 translocation z-score, replicate mean": 0.267, "p65 translocation z-score, replicate 1": 0.267, "Call": "inactive"}
{"gene": "Svil", "reagent no.": 6, "siRNA vendor or control pool": "qiagen single siRNA", "p65 translocation z-score, replicate mean": -0.0288, "p65 translocation z-score, replicate 1": -1.6, "Call": "inactive"}

Looked up above:
Hfe #3, siRNA vendor or control pool ambion single siRNA, p65 translocation z-score, replicate mean = -4.39
For “p65 translocation z-score, replicate 1”, Hfe #5, siRNA vendor or control pool qiagen single siRNA is entered as 0.0199
For “p65 translocation z-score, replicate 1”, Hfe #2, siRNA vendor or control pool ambion single siRNA shows 0.102
Svil #2, siRNA vendor or control pool ambion single siRNA, p65 translocation z-score, replicate mean = -0.73

Additional results follow:
{"gene": "Rbl2", "reagent no.": 1, "siRNA vendor or control pool": "ambion single siRNA", "p65 translocation z-score, replicate mean": 1.76, "p65 translocation z-score, replicate 1": 2.31, "Call": "inactive"}
{"gene": "Rbl2", "reagent no.": 2, "siRNA vendor or control pool": "ambion single siRNA", "p65 translocation z-score, replicate mean": -0.991, "p65 translocation z-score, replicate 1": -1.2, "Call": "inactive"}
{"gene": "Rbl2", "reagent no.": 3, "siRNA vendor or control pool": "ambion single siRNA", "p65 translocation z-score, replicate mean": -1.78, "p65 translocation z-score, replicate 1": -1.06, "Call": "inactive"}
{"gene": "Rbl2", "reagent no.": 4, "siRNA vendor or control pool": "qiagen single siRNA", "p65 translocation z-score, replicate mean": 1.81, "p65 translocation z-score, replicate 1": 1.86, "Call": "inactive"}
{"gene": "Rbl2", "reagent no.": 5, "siRNA vendor or control pool": "qiagen single siRNA", "p65 translocation z-score, replicate mean": -2.68, "p65 translocation z-score, replicate 1": -4.97, "Call": "active"}
{"gene": "Rbl2", "reagent no.": 6, "siRNA vendor or control pool": "qiagen single siRNA", "p65 translocation z-score, replicate mean": -1.72, "p65 translocation z-score, replicate 1": -1.72, "Call": "inactive"}
{"gene": "Folr1", "reagent no.": 1, "siRNA vendor or control pool": "ambion single siRNA", "p65 translocation z-score, replicate mean": -1.48, "p65 translocation z-score, replicate 1": -1.35, "Call": "inactive"}
{"gene": "Folr1", "reagent no.": 2, "siRNA vendor or control pool": "ambion single siRNA", "p65 translocation z-score, replicate mean": 3.43, "p65 translocation z-score, replicate 1": 3.99, "Call": "active"}
{"gene": "Folr1", "reagent no.": 3, "siRNA vendor or control pool": "ambion single siRNA", "p65 translocation z-score, replicate mean": 1.68, "p65 translocation z-score, replicate 1": 2.55, "Call": "inactive"}
{"gene": "Folr1", "reagent no.": 4, "siRNA vendor or control pool": "qiagen single siRNA", "p65 translocation z-score, replicate mean": -0.446, "p65 translocation z-score, replicate 1": -1.46, "Call": "inactive"}
{"gene": "Folr1", "reagent no.": 5, "siRNA vendor or control pool": "qiagen single siRNA", "p65 translocation z-score, replicate mean": -1.22, "p65 translocation z-score, replicate 1": -0.481, "Call": "inactive"}
{"gene": "Folr1", "reagent no.": 6, "siRNA vendor or control pool": "qiagen single siRNA", "p65 translocation z-score, replicate mean": -1.48, "p65 translocation z-score, replicate 1": -1.48, "Call": "inactive"}
{"gene": "Ammecr1l", "reagent no.": 1, "siRNA vendor or control pool": "ambion single siRNA", "p65 translocation z-score, replicate mean": -1.71, "p65 translocation z-score, replicate 1": -0.568, "Call": "inactive"}
{"gene": "Ammecr1l", "reagent no.": 2, "siRNA vendor or control pool": "ambion single siRNA", "p65 translocation z-score, replicate mean": -3.59, "p65 translocation z-score, replicate 1": -3.34, "Call": "active"}
{"gene": "Ammecr1l", "reagent no.": 3, "siRNA vendor or control pool": "ambion single siRNA", "p65 translocation z-score, replicate mean": -2.81, "p65 translocation z-score, replicate 1": -2.95, "Call": "active"}
{"gene": "Ammecr1l", "reagent no.": 4, "siRNA vendor or control pool": "qiagen single siRNA", "p65 translocation z-score, replicate mean": 0.745, "p65 translocation z-score, replicate 1": 0.77, "Call": "inactive"}
{"gene": "Ammecr1l", "reagent no.": 5, "siRNA vendor or control pool": "qiagen single siRNA", "p65 translocation z-score, replicate mean": -0.767, "p65 translocation z-score, replicate 1": -1.29, "Call": "inactive"}
{"gene": "Ammecr1l", "reagent no.": 6, "siRNA vendor or control pool": "qiagen single siRNA", "p65 translocation z-score, replicate mean": -0.398, "p65 translocation z-score, replicate 1": -1.4, "Call": "inactive"}
